Data as given in the supplement of paper PMC10849652.
The other results are listed elsewhere or left out.

Protein sequences, listed by entry. Tags and fused reporters are not part of them. Lines headed by an entry give the natural chain unless they say otherwise; changes in a name come on top.
UniProt Q96BH1: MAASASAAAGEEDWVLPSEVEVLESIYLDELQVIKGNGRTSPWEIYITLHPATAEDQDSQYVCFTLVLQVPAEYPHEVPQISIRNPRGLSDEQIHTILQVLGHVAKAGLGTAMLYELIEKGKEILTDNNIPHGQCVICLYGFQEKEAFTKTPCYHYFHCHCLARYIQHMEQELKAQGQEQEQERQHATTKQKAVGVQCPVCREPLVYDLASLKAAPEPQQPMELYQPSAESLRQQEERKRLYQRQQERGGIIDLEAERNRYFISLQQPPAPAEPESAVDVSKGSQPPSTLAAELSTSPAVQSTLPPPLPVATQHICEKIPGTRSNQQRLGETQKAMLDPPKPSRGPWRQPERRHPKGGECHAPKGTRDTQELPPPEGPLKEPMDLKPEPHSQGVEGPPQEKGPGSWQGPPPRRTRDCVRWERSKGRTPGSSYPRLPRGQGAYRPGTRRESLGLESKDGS
UniProt P61586, whole entry, looked up: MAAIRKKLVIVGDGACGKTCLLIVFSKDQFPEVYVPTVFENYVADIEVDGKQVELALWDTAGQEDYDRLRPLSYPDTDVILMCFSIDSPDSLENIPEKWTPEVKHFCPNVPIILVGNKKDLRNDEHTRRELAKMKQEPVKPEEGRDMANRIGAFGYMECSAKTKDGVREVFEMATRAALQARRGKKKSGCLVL
UniProt Q9UBF6, whole entry, looked up: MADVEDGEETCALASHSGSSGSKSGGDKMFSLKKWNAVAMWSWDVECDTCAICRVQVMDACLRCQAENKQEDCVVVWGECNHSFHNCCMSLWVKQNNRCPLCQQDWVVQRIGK
UniProt P62745, whole entry, looked up: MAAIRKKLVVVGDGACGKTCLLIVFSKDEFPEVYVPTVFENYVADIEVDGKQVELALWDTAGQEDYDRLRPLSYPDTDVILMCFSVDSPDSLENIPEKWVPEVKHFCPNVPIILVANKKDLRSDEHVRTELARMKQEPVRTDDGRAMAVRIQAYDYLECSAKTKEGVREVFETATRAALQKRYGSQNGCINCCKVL
UniProt O43353, whole entry, looked up: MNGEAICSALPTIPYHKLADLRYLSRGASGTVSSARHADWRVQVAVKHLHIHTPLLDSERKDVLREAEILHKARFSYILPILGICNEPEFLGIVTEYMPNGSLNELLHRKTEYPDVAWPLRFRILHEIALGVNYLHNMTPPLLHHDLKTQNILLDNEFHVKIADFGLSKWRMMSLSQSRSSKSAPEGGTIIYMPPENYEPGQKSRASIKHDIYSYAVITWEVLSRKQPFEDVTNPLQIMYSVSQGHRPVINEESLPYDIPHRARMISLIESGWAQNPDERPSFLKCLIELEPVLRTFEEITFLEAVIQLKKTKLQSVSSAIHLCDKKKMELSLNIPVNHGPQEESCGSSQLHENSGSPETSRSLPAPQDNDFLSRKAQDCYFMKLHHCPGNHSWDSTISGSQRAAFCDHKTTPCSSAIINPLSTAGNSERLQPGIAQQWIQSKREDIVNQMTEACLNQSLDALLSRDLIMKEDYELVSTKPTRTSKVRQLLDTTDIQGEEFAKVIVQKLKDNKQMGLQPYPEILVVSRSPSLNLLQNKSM
UniProt Q05823: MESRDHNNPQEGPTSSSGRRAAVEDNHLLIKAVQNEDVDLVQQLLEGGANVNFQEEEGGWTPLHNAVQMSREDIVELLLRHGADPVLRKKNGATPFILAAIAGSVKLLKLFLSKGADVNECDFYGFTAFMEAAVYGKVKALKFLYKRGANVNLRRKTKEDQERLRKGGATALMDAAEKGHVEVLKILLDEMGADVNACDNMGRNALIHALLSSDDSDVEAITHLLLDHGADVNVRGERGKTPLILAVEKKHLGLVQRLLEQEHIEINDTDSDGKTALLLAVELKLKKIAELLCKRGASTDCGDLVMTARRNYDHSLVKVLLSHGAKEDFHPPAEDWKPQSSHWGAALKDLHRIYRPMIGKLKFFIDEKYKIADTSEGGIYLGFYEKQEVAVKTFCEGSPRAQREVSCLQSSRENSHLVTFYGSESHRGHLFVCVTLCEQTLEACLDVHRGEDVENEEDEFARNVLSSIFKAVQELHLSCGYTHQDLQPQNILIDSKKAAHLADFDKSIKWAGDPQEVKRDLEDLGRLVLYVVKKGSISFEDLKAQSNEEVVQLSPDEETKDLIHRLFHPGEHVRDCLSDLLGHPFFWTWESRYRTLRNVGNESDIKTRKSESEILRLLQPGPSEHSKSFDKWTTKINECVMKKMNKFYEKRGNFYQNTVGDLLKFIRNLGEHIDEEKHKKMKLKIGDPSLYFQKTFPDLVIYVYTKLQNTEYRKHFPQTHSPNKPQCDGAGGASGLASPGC
UniProt Q9H7B2: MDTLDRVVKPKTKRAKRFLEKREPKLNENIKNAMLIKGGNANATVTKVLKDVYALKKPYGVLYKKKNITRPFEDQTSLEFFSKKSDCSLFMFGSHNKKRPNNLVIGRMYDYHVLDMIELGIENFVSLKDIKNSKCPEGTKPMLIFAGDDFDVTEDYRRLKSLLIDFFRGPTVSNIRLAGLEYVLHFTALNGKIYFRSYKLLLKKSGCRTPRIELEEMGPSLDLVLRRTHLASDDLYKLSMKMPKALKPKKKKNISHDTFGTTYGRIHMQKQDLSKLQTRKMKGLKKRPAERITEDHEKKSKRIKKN
UniProt Q96TC7: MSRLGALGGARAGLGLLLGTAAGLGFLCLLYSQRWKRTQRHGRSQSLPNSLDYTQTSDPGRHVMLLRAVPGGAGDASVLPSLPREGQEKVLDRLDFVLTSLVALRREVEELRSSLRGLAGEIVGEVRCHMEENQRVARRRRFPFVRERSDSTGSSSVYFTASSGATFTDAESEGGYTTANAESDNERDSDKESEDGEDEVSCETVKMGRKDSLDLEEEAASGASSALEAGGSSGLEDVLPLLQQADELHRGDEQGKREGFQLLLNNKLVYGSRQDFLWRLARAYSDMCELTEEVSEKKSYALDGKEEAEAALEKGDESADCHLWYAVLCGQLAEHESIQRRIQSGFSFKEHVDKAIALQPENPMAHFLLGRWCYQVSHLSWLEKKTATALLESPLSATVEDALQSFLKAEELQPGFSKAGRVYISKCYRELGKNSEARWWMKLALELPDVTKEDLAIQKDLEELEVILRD
UniProt Q13464: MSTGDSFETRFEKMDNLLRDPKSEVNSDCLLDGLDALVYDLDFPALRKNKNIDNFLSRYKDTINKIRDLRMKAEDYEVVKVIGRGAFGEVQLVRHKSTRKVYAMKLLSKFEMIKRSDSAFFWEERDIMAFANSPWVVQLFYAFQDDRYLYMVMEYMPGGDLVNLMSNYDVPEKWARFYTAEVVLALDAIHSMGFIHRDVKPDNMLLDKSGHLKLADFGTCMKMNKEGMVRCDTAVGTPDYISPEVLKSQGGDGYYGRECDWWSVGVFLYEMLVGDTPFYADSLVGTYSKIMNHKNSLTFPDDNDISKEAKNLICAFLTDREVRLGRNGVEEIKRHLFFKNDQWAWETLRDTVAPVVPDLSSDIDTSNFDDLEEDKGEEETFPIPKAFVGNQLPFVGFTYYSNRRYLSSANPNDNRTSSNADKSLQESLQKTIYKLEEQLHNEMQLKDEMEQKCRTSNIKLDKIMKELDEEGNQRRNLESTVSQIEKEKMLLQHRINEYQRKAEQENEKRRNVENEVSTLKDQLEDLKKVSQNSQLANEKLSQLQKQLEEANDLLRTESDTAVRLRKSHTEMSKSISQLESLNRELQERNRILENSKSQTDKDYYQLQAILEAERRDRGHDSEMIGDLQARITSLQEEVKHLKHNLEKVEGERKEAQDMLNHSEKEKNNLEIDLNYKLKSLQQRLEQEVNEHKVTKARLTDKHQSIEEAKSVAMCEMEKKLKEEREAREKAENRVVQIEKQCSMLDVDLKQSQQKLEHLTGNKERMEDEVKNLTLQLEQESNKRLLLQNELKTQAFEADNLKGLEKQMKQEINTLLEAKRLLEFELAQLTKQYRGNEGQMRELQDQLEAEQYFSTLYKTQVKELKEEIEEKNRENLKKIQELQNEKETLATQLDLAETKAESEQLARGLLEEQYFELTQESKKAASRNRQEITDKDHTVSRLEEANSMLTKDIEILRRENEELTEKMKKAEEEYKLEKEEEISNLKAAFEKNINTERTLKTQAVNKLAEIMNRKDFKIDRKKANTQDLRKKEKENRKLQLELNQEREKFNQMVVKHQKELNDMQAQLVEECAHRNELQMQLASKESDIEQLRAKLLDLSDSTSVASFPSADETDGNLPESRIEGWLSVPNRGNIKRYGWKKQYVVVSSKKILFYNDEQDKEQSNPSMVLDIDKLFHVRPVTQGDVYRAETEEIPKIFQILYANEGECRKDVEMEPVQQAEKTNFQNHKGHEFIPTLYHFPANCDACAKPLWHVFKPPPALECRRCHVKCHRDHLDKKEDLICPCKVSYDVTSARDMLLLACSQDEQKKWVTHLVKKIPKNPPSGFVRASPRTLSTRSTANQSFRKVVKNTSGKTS

Key:
Assay in all cases: log2 fold change, soluble protein after heating vs DMSO (PISA); higher = thermal stabilisation; K562 lysate, 10 uM; active = over 0.2 and 3.5 SD of the protein, either way, in both replicates (recomputed)
erlotinib = compound: C#Cc1cccc(Nc2ncnc3cc(OCCOC)c(OCCOC)cc23)c1 [erlotinib]
In short: (§1)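 Values give the log-two fold change in thermal stability against solvent controls, from duplicates. Crude K562 extract at 1 mg/mL protein, made by dounce homogenisation in PBS pH 7.4 with 1 mM MgCl2, was treated with 10 μM compound for 30 min. After 3 min heating across 48°C-58°C, aliquots were pooled, adjusted to 0.5% NP-40 at 4°C and centrifuged at 21,000xg for 90 min. The supernatant was measured by TMTpro 16plex LC-MS/MS with channel sums equalised.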

[1] = compound: C/C(=N\NC(=O)C1=CC(=CC=C1)S(=O)(=O)N2CCOCC2)/C3=C(C=CC(=C3)Cl)O
In short: as §1

[2] = compound: C1=CC(=CC=C1C2=NC3=C(N2)C=C(C=C3)C(=O)N)OC4=CC=C(C=C4)Cl
In short: as §1

[3] = compound: C1=CC2=C(C=CC(=C2)/C=C\3/C(=O)NC(=NCC4=CC=CS4)S3)N=C1
In short: as §1

[4] = compound: C1=CC2=NC=CN=C2C=C1/C=C/3\C(=O)NC(=O)S3
In short: as §1

[5] = compound: C1=CC=C(C=C1)C2=NC(=C(N2)C3=CC=NC=C3)C4=CC(=C(C=C4)Cl)O
In short: as §1

[6] = compound: C1=CC=C2C(=C1)C3=NNC4=CC=CC(=C43)C2=O
In short: as §1

[7] = compound: C1CCN(C1)C(=O)NC2=CC=CC(=C2)NC3=NC=C(C(=N3)NCCC4=CN=CN4)Br
In short: as §1

[8] = compound: C1CN(CCC1(CC2=CC=C(C=C2)Cl)N)C3=NC=NC4=C3C=CN4
In short: as §1

IRAK-1-4 Inhibitor I = compound: C1COCCN1CCN2C3=CC=CC=C3N=C2NC(=O)C4=CC(=CC=C4)[N+](=O)[O-] [IRAK-1-4 Inhibitor I]
In short: as §1

ibrutinib = compound: C=CC(=O)N1CCC[C@@H](n2nc(-c3ccc(Oc4ccccc4)cc3)c3c(N)ncnc32)C1 [ibrutinib]
In short: as §1

[9] = compound: CC(=O)c1cnc2ccc(-c3cc(Cl)c(O)c(Cl)c3)nc2c1N[C@H]1CC[C@H](CN(C)C)CC1
In short: as §1

ralimetinib = compound: CC(C)(C)Cn1c(N)nc2ccc(-c3[nH]c(C(C)(C)C)nc3-c3ccc(F)cc3)nc21 [ralimetinib]
In short: as §1

[10] = compound: CC(C)(O)CC(=O)NCCn1ccc2ncnc(Nc3ccc(Oc4cccc(C(F)(F)F)c4)c(Cl)c3)c21
In short: as §1

[11] = compound: CC(C)C1=C2N=C(C=C(N2N=C1)NCC3=CC=CC=C3)NCCCCCCN
In short: as §1

[12] = compound: CC1=C(C(CC(=O)N1)C2=CC=C(C=C2)C(F)(F)F)C(=O)NC3=C(C=C4C(=C3)C=NN4)F
In short: as §1

[13] = compound: CC1=C(C2=C(C=C1)C(=O)C3=CC=CC=C3N2CCCN)C
In short: as §1

[14] = compound: CC1=C(C=C(C=C1)NC(=O)C2=CC(=CC=C2)C(C)(C)C#N)NC3=CC4=C(C=C3)N=CN(C4=O)C
In short: as §1

[15] = compound: CC1=C(C=C(C=C1)NC(=O)C2=CC(=CC=C2)N(C)C)NC(=O)C3=CC=C(C=C3)O
In short: as §1

[16] = compound: CC1=CC=C(C=C1)SC2=C3C=C(SC3=CN=C2)C(=O)N
In short: as §1

Measured: log2 fold change

RNF25 (UniProt Q96BH1)
inactive: erlotinib -0.004 | [1] -0.051 | [2] 0.027 | [3] 0.055 | [4] -0.011 | [5] -0.003 | [6] -0.005 | [7] 0 | [8] -0.015 | IRAK-1-4 Inhibitor I 0.012 | ibrutinib 0.021 | [9] 0.03 | ralimetinib -0.004 | [10] 0.019 | [11] 0.042 | [12] -0.02 | [13] -0.009 | [14] 0.023 | [15] 0.006 | [16] -0.028

RPL26 (UniProt P61254)
inactive: erlotinib -0.001 | [1] -0.089 | [2] 0 | [3] -0.003 | [4] -0.05 | [5] 0.18 | [6] 0.034 | [7] 0.066 | [8] -0.002 | IRAK-1-4 Inhibitor I -0.198 | ibrutinib -0.048 | [9] -0.01 | ralimetinib -0.18 | [10] 0.06 | [11] -0.011 | [12] 0.076 | [13] 0.011 | [14] -0.01 | [15] 0.094 | [16] -0.003

RHOA (UniProt P61586)
inactive: erlotinib 0.001 | [1] -0.093 | [2] 0.049 | [3] -0.093 | [4] -0.09 | [5] 0.064 | [6] 0.038 | [7] -0.022 | [8] 0.039 | IRAK-1-4 Inhibitor I -0.022 | ibrutinib 0.36 | [9] -0.041 | ralimetinib 0.014 | [10] 0.094 | [11] 0.031 | [12] 0.003 | [13] 0.093 | [14] -0.02 | [15] -0.022 | [16] -0.006

RNF7 (UniProt Q9UBF6)
inactive: erlotinib 0.024 | [1] -0.039 | [2] -0.051 | [3] 0.01 | [4] 0.031 | [5] 0.005 | [6] -0.014 | [7] 0.04 | [8] -0.103 | IRAK-1-4 Inhibitor I -0.001 | ibrutinib 0.061 | [9] 0.029 | ralimetinib 0.006 | [10] -0.069 | [11] -0.046 | [12] 0.035 | [13] -0.036 | [14] 0.075 | [15] 0.039 | [16] 0.002

RHOB (UniProt P62745)
inactive: erlotinib -0.006 | [1] -0.044 | [2] -0.017 | [3] 0.02 | [4] 0.176 | [5] 0.041 | [6] -0.013 | [7] 0.017 | [8] 0.047 | IRAK-1-4 Inhibitor I 0.01 | ibrutinib -0.095 | [9] 0.041 | ralimetinib -0.033 | [10] 0.001 | [11] -0.037 | [12] -0.021 | [13] -0.009 | [14] 0.087 | [15] -0.026 | [16] -0.021

RPL27A (UniProt P46776)
inactive: erlotinib -0.06 | [1] -0.045 | [2] 0.014 | [3] 0.003 | [4] -0.065 | [5] 0.002 | [6] -0.001 | [7] -0.014 | [8] -0.012 | IRAK-1-4 Inhibitor I 0.013 | ibrutinib -0.03 | [9] -0.014 | ralimetinib -0.025 | [10] -0.026 | [11] 0.012 | [12] -0.038 | [13] -0.047 | [14] 0.003 | [15] -0.013 | [16] 0.031

RIPK2 (UniProt O43353)
inactive: erlotinib 0.02 | [1] 0.321 | [2] 0.012 | [3] -0.02 | [4] -0.025 | [5] 0.048 | [6] -0.007 | [7] -0.004 | [8] 0.008 | IRAK-1-4 Inhibitor I 0.002 | ibrutinib 0.182 | [9] -0.045 | ralimetinib 0.084 | [10] -0.011 | [11] 0.007 | [12] 0.024 | [13] -0.074 | [14] 0.071 | [15] 0.022 | [16] 0.035

RPL23A (UniProt P62750)
inactive: erlotinib -0.006 | [1] 0.011 | [2] -0.051 | [3] -0.012 | [4] 0 | [5] 0.024 | [6] 0.044 | [7] 0.022 | [8] 0.001 | IRAK-1-4 Inhibitor I 0 | ibrutinib -0.025 | [9] -0.009 | ralimetinib 0.004 | [10] -0.006 | [11] 0.051 | [12] -0.045 | [13] -0.017 | [14] -0.027 | [15] -0.007 | [16] 0.035

2 successive entries out of the list so far:
RPL27A (UniProt P46776)
inactive: erlotinib -0.06 | [1] -0.045 | [2] 0.014 | [3] 0.003 | [4] -0.065 | [5] 0.002 | [6] -0.001 | [7] -0.014 | [8] -0.012 | IRAK-1-4 Inhibitor I 0.013 | ibrutinib -0.03 | [9] -0.014 | ralimetinib -0.025 | [10] -0.026 | [11] 0.012 | [12] -0.038 | [13] -0.047 | [14] 0.003 | [15] -0.013 | [16] 0.031

RIPK2 (UniProt O43353)
inactive: erlotinib 0.02 | [1] 0.321 | [2] 0.012 | [3] -0.02 | [4] -0.025 | [5] 0.048 | [6] -0.007 | [7] -0.004 | [8] 0.008 | IRAK-1-4 Inhibitor I 0.002 | ibrutinib 0.182 | [9] -0.045 | ralimetinib 0.084 | [10] -0.011 | [11] 0.007 | [12] 0.024 | [13] -0.074 | [14] 0.071 | [15] 0.022 | [16] 0.035

Following part

RNASEL (UniProt Q05823)
inactive: erlotinib 0.103 | [1] -0.025 | [2] -0.019 | [3] -0.01 | [4] 0.099 | [5] 0.009 | [6] -0.062 | [7] -0.031 | [8] 0.005 | IRAK-1-4 Inhibitor I 0.006 | ibrutinib -0.072 | [9] -0.033 | ralimetinib 0.037 | [10] -0.034 | [11] 0 | [12] -0.023 | [13] 0.001 | [14] 0.01 | [15] 0.013 | [16] 0.027

RPL11 (UniProt P62913)
inactive: erlotinib 0.005 | [1] -0.005 | [2] 0.056 | [3] 0.007 | [4] 0.002 | [5] 0 | [6] -0.058 | [7] -0.015 | [8] -0.008 | IRAK-1-4 Inhibitor I 0.012 | ibrutinib -0.085 | [9] -0.017 | ralimetinib -0.037 | [10] -0.045 | [11] 0 | [12] -0.027 | [13] 0 | [14] 0.015 | [15] 0.033 | [16] -0.014

RPF2 (UniProt Q9H7B2)
inactive: erlotinib 0.098 | [1] 0.105 | [2] 0.079 | [3] 0.026 | [4] 0.075 | [5] 0.044 | [6] -0.035 | [7] -0.02 | [8] 0.026 | IRAK-1-4 Inhibitor I -0.012 | ibrutinib 0.028 | [9] 0.004 | ralimetinib -0.006 | [10] -0.028 | [11] -0.043 | [12] 0.072 | [13] -0.014 | [14] 0.053 | [15] 0.041 | [16] 0.005

RPL29 (UniProt P47914)
inactive: erlotinib 0.002 | [1] -0.08 | [2] -0.033 | [3] -0.016 | [4] -0.023 | [5] 0.041 | [6] 0.024 | [7] 0.043 | [8] -0.009 | IRAK-1-4 Inhibitor I 0.012 | ibrutinib 0.011 | [9] -0.03 | ralimetinib 0.008 | [10] 0.041 | [11] -0.004 | [12] -0.012 | [13] 0.125 | [14] -0.005 | [15] -0.082 | [16] 0.001

RMDN3 (UniProt Q96TC7)
inactive: erlotinib -0.021 | [1] 0.198 | [2] -0.081 | [3] -0.01 | [4] -0.008 | [5] 0.02 | [6] -0.015 | [7] 0.007 | [8] 0.009 | IRAK-1-4 Inhibitor I 0.025 | ibrutinib 0.015 | [9] -0.012 | ralimetinib -0.009 | [10] 0.007 | [11] 0.007 | [12] 0.013 | [13] -0.001 | [14] 0.02 | [15] 0.011 | [16] 0.011

RPL13 (UniProt P26373)
inactive: erlotinib -0.009 | [1] -0.256 | [2] -0.028 | [3] -0.011 | [4] -0.005 | [5] -0.012 | [6] 0.03 | [7] 0.021 | [8] -0.05 | IRAK-1-4 Inhibitor I -0.021 | ibrutinib -0.035 | [9] -0.001 | ralimetinib 0.012 | [10] -0.031 | [11] -0.008 | [12] -0.042 | [13] -0.027 | [14] -0.033 | [15] -0.005 | [16] 0.035

RPL24 (UniProt P83731)
inactive: erlotinib -0.039 | [1] -0.14 | [2] -0.003 | [3] 0 | [4] -0.009 | [5] 0.022 | [6] 0.016 | [7] 0.024 | [8] 0 | IRAK-1-4 Inhibitor I -0.009 | ibrutinib -0.056 | [9] -0.008 | ralimetinib -0.01 | [10] -0.02 | [11] 0.007 | [12] -0.01 | [13] -0.032 | [14] 0.005 | [15] 0.014 | [16] 0.016

ROCK1 (UniProt Q13464)
inactive: erlotinib -0.01 | [1] 0.029 | [2] 0 | [3] 0.075 | [4] -0.036 | [5] -0.004 | [6] -0.041 | [7] 0.008 | [8] 0.075 | IRAK-1-4 Inhibitor I 0.004 | ibrutinib -0.002 | [9] -0.027 | ralimetinib -0.005 | [10] -0.021 | [11] -0.003 | [12] 0.096 | [13] -0.041 | [14] 0.006 | [15] 0.024 | [16] 0.002
